Measurements taken from patent US7888042B2, “Methods for identifying insulin mimetics” (Ohio University, priority 2005, dated 2011).
For some assays here: The name of at least one read-out is uncertain. For some assays here: At least one compound was matched to its structure with a doubt left.

The chains behind the UniProt entries cited, without tags or fusion partners. Residues count along the entry.
UniProt P06213, 28-758 limits assumed: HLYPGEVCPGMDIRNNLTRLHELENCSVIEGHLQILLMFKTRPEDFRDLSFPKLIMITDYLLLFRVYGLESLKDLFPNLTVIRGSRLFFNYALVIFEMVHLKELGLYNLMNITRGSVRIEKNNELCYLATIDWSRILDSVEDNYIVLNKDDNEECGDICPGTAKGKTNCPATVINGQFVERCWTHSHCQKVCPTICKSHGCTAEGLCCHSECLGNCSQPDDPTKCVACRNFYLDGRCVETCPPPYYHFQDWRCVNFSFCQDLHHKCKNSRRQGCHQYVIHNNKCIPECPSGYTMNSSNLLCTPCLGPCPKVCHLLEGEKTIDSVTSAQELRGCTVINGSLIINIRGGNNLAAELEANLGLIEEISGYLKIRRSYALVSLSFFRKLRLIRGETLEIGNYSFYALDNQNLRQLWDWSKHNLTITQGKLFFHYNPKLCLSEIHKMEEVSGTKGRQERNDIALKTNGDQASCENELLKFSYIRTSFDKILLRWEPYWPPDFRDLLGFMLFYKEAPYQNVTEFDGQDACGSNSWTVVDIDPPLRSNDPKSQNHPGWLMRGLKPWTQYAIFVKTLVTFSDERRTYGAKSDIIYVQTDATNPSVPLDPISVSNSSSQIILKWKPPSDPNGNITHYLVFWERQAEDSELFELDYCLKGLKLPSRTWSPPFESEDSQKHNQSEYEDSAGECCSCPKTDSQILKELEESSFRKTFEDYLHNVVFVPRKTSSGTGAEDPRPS
UniProt P06213, 763-1382 partner limits assumed: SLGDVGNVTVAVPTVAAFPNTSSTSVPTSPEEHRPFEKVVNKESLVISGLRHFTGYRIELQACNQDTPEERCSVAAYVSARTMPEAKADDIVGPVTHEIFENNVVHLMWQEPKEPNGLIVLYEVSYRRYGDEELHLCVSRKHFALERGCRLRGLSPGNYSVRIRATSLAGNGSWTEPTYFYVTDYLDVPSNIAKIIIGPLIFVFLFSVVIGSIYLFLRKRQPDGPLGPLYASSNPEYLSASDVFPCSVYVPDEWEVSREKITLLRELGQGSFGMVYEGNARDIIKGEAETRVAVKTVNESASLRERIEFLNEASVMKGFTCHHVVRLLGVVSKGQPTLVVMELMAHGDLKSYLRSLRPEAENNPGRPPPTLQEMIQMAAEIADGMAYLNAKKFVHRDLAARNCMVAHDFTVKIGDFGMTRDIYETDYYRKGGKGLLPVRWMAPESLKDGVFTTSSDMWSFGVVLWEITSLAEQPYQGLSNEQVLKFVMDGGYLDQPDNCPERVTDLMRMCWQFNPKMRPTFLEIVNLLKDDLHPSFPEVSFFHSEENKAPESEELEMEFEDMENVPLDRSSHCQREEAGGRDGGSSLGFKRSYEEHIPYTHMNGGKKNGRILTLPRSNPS

What was measured:
3T3-L1 adipocytes = assay: Glucose uptake assay with insulin signaling pathway inhibitors; format: cell-based; details: inhibitor added along with α-PGG
Description: (A) Glucose transport was measured by determining [^3H]-2-deoxyglucose uptake stimulated by either insulin or α-PGG in 3T3-L1 cells in the presence or absence of HNMPA-(AM)3, an inhibitor of IR tyrosine kinase activity (24); wortmannin, an inhibitor of PI 3-kinase (25), or cytochalasin B, an inhibitor of GLUT4 (26), (n=4, mean±SD). (B) Cells were induced by 20 or 40 μM α-PGG or 100 nM insulin for 15 min. Cell lysates were separated by PAGE and analyzed for phosphorylation of IR (in CHO-IR cells) or Akt (in adipocytes) using antibodies specific to the target proteins. (C) Cells were treated with α-PGG and insulin in a fashion similar to (B) and assayed for their respective PI-3 kinase activity with a radioactive TLC method (27). (D) In similar experiments, intact cells were analyzed by confocal microscopy for translocation of GLUT4 using anti-GLUT4 antibodies.
Insulin signaling pathway study with inhibitors. To identify the signaling pathway and its potential protein target for PGG's glucose transport activity, three inhibitors to the insulin signaling pathway were selected. […] Inhibitors were individually added to the 3T3-L1 adipocytes along with either α-PGG or insulin at predetermined concentrations during glucose uptake assays, and the inhibition was measured by the glucose taken in by the cell samples treated with or without inhibitors.

[1] = biological target: T1, IR isolated from CHO-IR cells (Homo sapiens, UniProt P06213); assay: 125I-insulin saturation binding to IR in WGA-coated wells; details: 30 μM or 50 μM α-PGG
T1 construct: expressed in transfected cells; host or cells: CHO-IR cells (from Dr. Alan Saltiel's lab)
Description: (A) α-PGG binds to IR as measured by a SPR (28). Increasing concentrations of α-PGG was injected into the system to interact with the pure IR attached to the gold surface of the biosensor chip. The binding, represented in arbitrary response units, was automatically plotted against α-PGG concentrations to generate the binding curve. (B) Insulin binding to IR in the absence or presence of α-PGG. Increasing amounts of ^125I-labeled insulin were added to WGA-coated wells containing pre-bound IR isolated from CHO-IR cells in the absence of α-PGG or in the presence of 30 μM or 50 μM of α-PGG. After overnight incubation, removal of excessive ligands, and washing, the bound radioactive insulin was measured. (C) Insulin displacement by α-PGG. Fixed amounts of radioactive insulin (1 nM) were added to each of the WGA-coated wells pre-bound with IR. Increasing amounts of α-PGG were added to the wells to displace the ^125I-labeled insulin. […]
Insulin receptor binding studies. […] After sensograms of α-PGG-IR binding at different concentrations were recorded, the binding affinity was analyzed using BIAevaluation software. […] The bound ligand was detached (eluted) from the receptor with 2×200 μL 0.2M Glycine pH 2.8, and measured for its radioactivity using a Beckman Coulter LS 6400 Multi-Purpose Scintillation Counter. […] The receptor binding results were analyzed with the software GraphPad Prism.

| SMILES | glucose transport activity induced by α-PGG in presence of inhibitor (3T3-L1 adipocytes) | effect on Kd of insulin for IR [1] |
| --- | --- | --- |
| COC[C@H]1OC(=O)c2coc3c2[C@@]1(C)C1=C(C3=O)[C@@H]2CCC(=O)[C@@]2(C)C[C@H]1OC(C)=O [wortmannin] | completely abolished |  |
| O=C(OC[C@H]1O[C@H](OC(=O)c2cc(O)c(O)c(O)c2)[C@H](OC(=O)c2cc(O)c(O)c(O)c2)[C@@H](OC(=O)c2cc(O)c(O)c(O)c2)[C@@H]1OC(=O)c1cc(O)c(O)c(O)c1)c1cc(O)c(O)c(O)c1 [α-PGG, alpha 1,2,3,4,6-penta-O-galloyl-D-Glucopyranose] |  | without significantly affecting the Kd |
